# Some of these results come from one statement about several compounds together.
# Tested on: ALS (SOD-1) mice
# Assay: Survival experiment of ALS (SOD-1) mice
# Type: in vivo
# Conditions: TLCK 4.4 mg/kg, SCH79797 25 μg/kg, untreated survival not more than 145 days
row,Compound,improvement of survival
1,"CC(C)c1ccc(Cn2ccc3c4c(N)nc(NC5CC5)nc4ccc32)cc1.Cl.Cl [SCH79797, N3-Cyclopropyl-7-[[4-(1-methylethyl)phenyl]methyl]-7H-pyrrolo[3,2-f]quinazoline-1,3-diamine dihydrochloride]",at least 15 days
2,N alpha-tosyl-L-lysine chloromethyl ketone [TLCK],at least 15 days
